PubChem BioAssay AID1224830 | NIAID, 2016

Screen: 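Host factors that control LPS-induced TNF expression in human macrophages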 (primary screen)
Cells: human THP-1 monocytic leukaemia cells, TNF dual-luciferase reporter clone, PMA-differentiated to macrophage-like cells
Reagent: siRNA pool against human genes, 50 nM
Duration: LPS for 4 h, given about 3 days after siRNA transfection
Treatment: bacterial LPS (TLR4 ligand), 10 ng/ml
Measured: 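Ratio of firefly to renilla light, scaled to the plate median and expressed as a robust z-score per replicate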
Scale: TNF reporter robust z-score: higher = stronger TNF reporter response to LPS
Hit rule: 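Each well counts as active if its z-score is over 2.8 or under -1.5; controls are left without a call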
Here is an unselected part of about 18,000 reagents tested. Of all reagents, about 2,900 (16%) were called active. 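Calls are made per well; low scores hint the gene aids the LPS response, high scores that it dampens it.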 Repeated entries: four replicate wells of each siRNA pool.

no.	gene	PubChem SID	TNF reporter robust z-score	Outcome
1	BBS1	SID315447515	1.85	inactive
2	BBS1	SID315447515	0.04	inactive
3	BBS1	SID315447515	-0.34	inactive
4	APOBEC3D	SID315462103	0.07	inactive
5	APOBEC3D	SID315462103	1.2	inactive
6	APOBEC3D	SID315462103	-0.22	inactive
7	APOBEC3D	SID315462103	-1.04	inactive
8	FAM149A	SID315455513	-0.05	inactive
9	FAM149A	SID315455513	-0.63	inactive
10	FAM149A	SID315455513	-0.18	inactive
11	FAM149A	SID315455513	-0.3	inactive
12	RNPC3	SID315457701	-1.42	inactive
13	RNPC3	SID315457701	-0.23	inactive
14	RNPC3	SID315457701	0.11	inactive
15	RNPC3	SID315457701	0.63	inactive
16	DDIAS	SID315463234	0.04	inactive
17	DDIAS	SID315463234	0.61	inactive
18	DDIAS	SID315463234	0.43	inactive
19	DDIAS	SID315463234	0.58	inactive
20	IFT172	SID315455700	-0.23	inactive
21	IFT172	SID315455700	0.5	inactive
22	IFT172	SID315455700	-0.69	inactive
23	IFT172	SID315455700	-0.1	inactive
24	PPP1R17	SID315454393	1.74	inactive
25	PPP1R17	SID315454393	0.98	inactive
26	PPP1R17	SID315454393	0.04	inactive
27	PPP1R17	SID315454393	-0.77	inactive
28	KIAA0408	SID315453516	-0.56	inactive
29	KIAA0408	SID315453516	-0.25	inactive
30	KIAA0408	SID315453516	-0.77	inactive
31	KIAA0408	SID315453516	-1.36	inactive
32	NR2C1	SID315451964	3.38	active
33	NR2C1	SID315451964	2.2	inactive
34	NR2C1	SID315451964	0.63	inactive
35	NR2C1	SID315451964	3.71	active
36	TMEM236	SID315464105	0.61	inactive
37	TMEM236	SID315464105	0.17	inactive
38	TMEM236	SID315464105	-0.42	inactive
39	TMEM236	SID315464105	-0.59	inactive
40	AASDH	SID315461934	-0.37	inactive
41	AASDH	SID315461934	0.03	inactive
42	AASDH	SID315461934	0.13	inactive
43	AASDH	SID315461934	-0.21	inactive
44	SLC25A38	SID315457316	1.84	inactive
45	SLC25A38	SID315457316	0.03	inactive
46	SLC25A38	SID315457316	1.63	inactive
47	SLC25A38	SID315457316	1.07	inactive
48	STMN4	SID315459883	0.48	inactive
49	STMN4	SID315459883	-0.42	inactive
50	STMN4	SID315459883	2.5	inactive
51	STMN4	SID315459883	1.5	inactive

The list goes on (15 carried over from the part before).
no.	gene	PubChem SID	TNF reporter robust z-score	Outcome
37	TMEM236	SID315464105	0.17	inactive
38	TMEM236	SID315464105	-0.42	inactive
39	TMEM236	SID315464105	-0.59	inactive
40	AASDH	SID315461934	-0.37	inactive
41	AASDH	SID315461934	0.03	inactive
42	AASDH	SID315461934	0.13	inactive
43	AASDH	SID315461934	-0.21	inactive
44	SLC25A38	SID315457316	1.84	inactive
45	SLC25A38	SID315457316	0.03	inactive
46	SLC25A38	SID315457316	1.63	inactive
47	SLC25A38	SID315457316	1.07	inactive
48	STMN4	SID315459883	0.48	inactive
49	STMN4	SID315459883	-0.42	inactive
50	STMN4	SID315459883	2.5	inactive
51	STMN4	SID315459883	1.5	inactive
52	MBNL3	SID315457865	-0.67	inactive
53	MBNL3	SID315457865	-1.3	inactive
54	MBNL3	SID315457865	-1	inactive
55	MBNL3	SID315457865	-0.32	inactive
56	FCAMR	SID315460142	-1.07	inactive
57	FCAMR	SID315460142	-1.26	inactive
58	FCAMR	SID315460142	-1.06	inactive
59	FCAMR	SID315460142	-0.39	inactive
60	GGT5	SID315448888	-0.54	inactive
61	GGT5	SID315448888	-0.88	inactive
62	GGT5	SID315448888	-0.16	inactive
63	GGT5	SID315448888	0	inactive
64	MUC15	SID315462191	-1.41	inactive
65	MUC15	SID315462191	-1.47	inactive
66	MUC15	SID315462191	-1.1	inactive
67	MUC15	SID315462191	-0.16	inactive
68	SPATA20	SID315459020	-0.66	inactive
69	SPATA20	SID315459020	0.23	inactive
70	SPATA20	SID315459020	-0.24	inactive
71	SPATA20	SID315459020	-0.23	inactive
72	TBC1D31	SID315461084	0.26	inactive
73	TBC1D31	SID315461084	0.16	inactive
74	TBC1D31	SID315461084	0.59	inactive
75	TBC1D31	SID315461084	0.45	inactive
76	EIF3C	SID315452727	-0.9	inactive
77	EIF3C	SID315452727	-0.41	inactive
78	EIF3C	SID315452727	-0.65	inactive
79	EIF3C	SID315452727	-0.54	inactive
80	TMCC1	SID315454934	0.11	inactive
81	TMCC1	SID315454934	-0.42	inactive
82	TMCC1	SID315454934	0.2	inactive
83	TMCC1	SID315454934	0.82	inactive
84	EEF1A1	SID315448440	-0.62	inactive
85	EEF1A1	SID315448440	0.55	inactive
86	EEF1A1	SID315448440	-0.41	inactive
87	EEF1A1	SID315448440	0.31	inactive
88	MNT	SID315450017	-0.23	inactive
89	MNT	SID315450017	-0.07	inactive
90	MNT	SID315450017	-0.55	inactive
91	MNT	SID315450017	-0.18	inactive
92	TAS2R60	SID315463982	-0.65	inactive
93	TAS2R60	SID315463982	0.12	inactive
94	TAS2R60	SID315463982	-0.5	inactive
95	TAS2R60	SID315463982	0.81	inactive
96	SP3	SID315451591	0.32	inactive
97	SP3	SID315451591	0.75	inactive
98	SP3	SID315451591	-0.07	inactive
99	SP3	SID315451591	0.12	inactive
100	RASD2	SID315455324	0.79	inactive
101	RASD2	SID315455324	1.3	inactive
102	RASD2	SID315455324	1.29	inactive
103	RASD2	SID315455324	0.96	inactive
104	OR7A5	SID315455835	1.43	inactive
105	OR7A5	SID315455835	0.88	inactive
106	OR7A5	SID315455835	1.12	inactive
107	OR7A5	SID315455835	0.03	inactive
108	STARD3	SID315454480	1.91	inactive
109	STARD3	SID315454480	-0.32	inactive
110	STARD3	SID315454480	-0.07	inactive
111	STARD3	SID315454480	-0.09	inactive
